According to paper PMC4318453:
Results are given in words; binding and its absence hold for the method and conditions named. Binding calls can cover weak binding; strength is not graded here. Sequences can lack the tags named with a protein.

By UniProt entry, the sequences of proteins in these tests, tags left out. Where a name states a change or a piece, a line headed by the entry shows the natural chain unless it says otherwise.
UniProt P12004: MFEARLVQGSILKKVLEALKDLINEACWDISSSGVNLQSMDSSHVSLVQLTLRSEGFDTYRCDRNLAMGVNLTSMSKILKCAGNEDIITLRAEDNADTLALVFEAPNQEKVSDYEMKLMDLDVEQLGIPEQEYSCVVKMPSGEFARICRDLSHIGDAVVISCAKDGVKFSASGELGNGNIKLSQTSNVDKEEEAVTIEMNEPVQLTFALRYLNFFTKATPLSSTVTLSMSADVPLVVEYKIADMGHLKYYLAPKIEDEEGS

Each substance was assayed against T1, GST-agnoprotein (BK polyomavirus (BKPyV)) (UniProt P03085) (assay: pull-down; GST pull-down with purified GST-agnoprotein incubated with PCNA mutants; immunoblot with anti-agnoprotein and anti-PCNA; both purified).
T1 sequence: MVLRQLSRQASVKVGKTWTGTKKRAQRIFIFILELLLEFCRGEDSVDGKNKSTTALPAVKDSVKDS

Substance	binding
PCNA mutant QLGI125 (to Ala) (from UniProt P12004)	binds
PCNA mutant SHV43AAA (from UniProt P12004)	binds
PCNA mutant VDK188 (to Ala) (from UniProt P12004)	binds
